PubChem BioAssay AID1259424, University of Nebraska Medical Center, 2018
Test: 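Seek colon cancer survival genes behaving like KSR1, using a six-gene signature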 (primary screen). Cell system: human HCT116 colon cancer cells. Reagents: siRNA pool against human genes, 50 nM. Measurement: 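Log2 levels of six mRNAs (branched-DNA multiplex), adjusted by two reference genes and the non-targeting median, then scored against the average KSR1 knockdown pattern as Pearson r and euclidean distance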. Reading the numbers: mean correlation with KSR1 profile: higher = expression change more like KSR1 knockdown; mean distance from KSR1 profile: higher = expression change less like KSR1 knockdown.
This is an unselected part of about 14,000 reagents tested. 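Higher correlation or smaller distance means closer resemblance to KSR1 loss; control wells, including KSR1 knockdowns, recur on many plates.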 Not all columns of the deposit are shown. The record does not give: the time to read-out.

For PITX1, what does the deposit list?
mean correlation with KSR1 profile: 0.416; mean distance from KSR1 profile: 1.27

What did the screen give for CASQ2?
mean correlation with KSR1 profile: 0.273; mean distance from KSR1 profile: 1.65

With FUCA2, what was measured?
mean correlation with KSR1 profile: -0.325; mean distance from KSR1 profile: 2.8

With MMACHC, how do the results read?
mean correlation with KSR1 profile: 0.0264; mean distance from KSR1 profile: 2.35

Look-ups from above:
Under “mean distance from KSR1 profile”, CASQ2 has 1.65
Result of FUCA2 in “mean correlation with KSR1 profile”: -0.325

The list goes on.
What did the screen give for GJB2?
mean correlation with KSR1 profile: -0.053; mean distance from KSR1 profile: 2.55

What is on record for PHB2?
mean correlation with KSR1 profile: -0.369; mean distance from KSR1 profile: 2.85

What did the screen give for LPAL2?
mean correlation with KSR1 profile: -0.801; mean distance from KSR1 profile: 2.7

For TGFB1I1, what was measured?
mean correlation with KSR1 profile: 0.27; mean distance from KSR1 profile: 2.38

Which result is listed for QRFPR?
mean correlation with KSR1 profile: 0.439; mean distance from KSR1 profile: 1.34

For CDS1, what was measured?
mean correlation with KSR1 profile: 0.0664; mean distance from KSR1 profile: 1.77

For PPP2R2B, what was measured?
mean correlation with KSR1 profile: -0.281; mean distance from KSR1 profile: 2.2

What did the screen give for SLC46A2?
mean correlation with KSR1 profile: 0.756; mean distance from KSR1 profile: 1.39
